# Primary screen of a compound library

Measurements from “University of Dundee, Small-Polar-MMV Screening Library” (2021), ChEMBL document CHEMBL3988442.

T. brucei: 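Whole-parasite assay of Trypanosoma brucei over 72 hours; the read-out is not stated. Tested at 30 µM. Direction is inferred from retests: higher values go with stronger inhibition. Values scatter widely below zero; nearly all retest evidence comes from the higher of the two concentrations used. Size under these conditions: about 64,000 compounds, about 940 of them at 50% or above in at least one test.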
Leishmania in macrophages: 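Cell assay of Leishmania donovani living inside macrophages; the read-out is not stated. Tested at 30 µM. Higher reads as stronger inhibition (inferred: compounds with an IC50 in retests scored well above the rest). About 69,000 compounds were tested under these conditions; 1.5% (about 1,000) showed 50% or more at least once.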

Results are given as percent effect.
How 0% and 100% were set is not recorded. Most values in the screen are low, and negative values occur.
This is an unselected part of the compounds tested.
Two or more numbers in one place are separate tests of the same structure; such repeats can differ widely.
A dash means the value is not listed here; it may have been measured.

| # | SMILES | T. brucei | Leishmania in macrophages |
|---|---|---|---|
| 1 | `CN(C)C(=O)C1CCCN1CCCNC(=O)c1ccccc1F` (centres undefined) | -77.45 | 34.19 |
| 2 | `CC(C)c1nc(S(=O)(=O)N(C)c2ccc(F)cc2)c[nH]1` | -9.957 | 11.35 |
| 3 | `C=C(C)COc1ccccc1NC(=O)N1CCOCC(CO)C1` (centres undefined) | -15.72 | -14.48 |
| 4 | `CCn1nc(C(=O)N2CCNCC2C(=O)Nc2ccc(C)nc2)cc1C` (centres undefined) | -21.66 | -17.53 |
| 5 | `c1ccc2oc(CN3CCCC(Cn4cncn4)C3)nc2c1` (centres undefined) | - | 35.61 |
| 6 | `Cc1nc(S(=O)(=O)N2CCCCc3ccccc32)cn1C` | -3.953 | 9.409 |
| 7 | `O=C(c1ccccn1)N1Cc2nccn2CC(COc2cccnc2)C1` (centres undefined) | -18.71 | -15.8 |
| 8 | `O=C(O)[C@@H]1CN(C(=O)CC2CCCC2)C[C@H]1c1ccc(F)cc1` | -28.98 | 38.29 |
| 9 | `CCCC(=O)N1CCC(c2cc[nH]n2)C1` (centres undefined) | - | 21.45 |
| 10 | `O=C(O)C(F)(F)F.O=C(O)C(F)(F)F.c1cncc(COCc2nnc3n2CCN(Cc2ccsc2)C3)c1` | -45.75 | 15.21 |
| 11 | `O=C(CNC1(c2ccc(Cl)cc2)CCOCC1)NC1CCCC1` | -21.66 | -0.6685 |
| 12 | `[H][C@@]12CN(C(=O)c3cccnc3)C[C@]1([H])[C@@H]2CC(=O)Nc1cccnc1` | -13.32 | 5.989 |
| 13 | `CCOC(=O)C1CCN(C(=O)c2cc(Br)ccc2-n2cnnn2)CC1` | -10.46 | -7.131 |
| 14 | `CC(=O)N1CCN(C(=O)C(C)OCC(F)(F)F)CC1` (centres undefined) | -38.85 | 34.91 |
| 15 | `COC(=O)c1ccc(N2CCN(C(=O)c3ccco3)C(C)C2)cc1` (centres undefined) | 90.39 | 43.61 |
| 16 | `O=S(=O)(c1cccnc1)N1CCCCC1CCN1CCOCC1` (centres undefined) | 5.73 | -7.003 |
| 17 | `O=C1CCCN1c1cccc(N2CCC(NCCc3cscn3)CC2)c1` | 6.374 | 16.35 |
| 18 | `CCn1ncc2c1CCCC2NCc1csc(COC)n1` (centres undefined) | -12.26 | -3.244 |
| 19 | `CN(CCOc1cccc(CN)c1)C1CCOCC1` | 20.13 | 11.18 |
| 20 | `Cc1cc2c(C)cc(O)cc2c(=O)o1` | -9.76 | 3.261 |
| 21 | `Cc1cnccc1-n1nc(C(C)C)nc1CCc1cnccn1` | -18.32 | 8.49 |
| 22 | `[H][C@]12CC[C@@]3(N=C(C)N(CCOC)C3=O)[C@@]1([H])CN(C(=O)NCC(C)C)C2` | -9.875 | 2.928 |
| 23 | `OC1CCN(c2ccc(CNc3nc4ccccc4s3)cc2F)CC1` | 13.63 | 22 |
| 24 | `CN(C(=O)NCCCNc1ccccn1)C1CCS(=O)(=O)C1` (centres undefined) | -0.1784 | 16.6 |
| 25 | `COc1ccc(C2CCCCCN2Cc2nnc(C)o2)cc1` (centres undefined) | -35.8 | 6.35 |
| 26 | `CC1CCN(S(=O)(=O)N2C[C@H](c3ccccc3)[C@@H](N)C2)CC1` | 19.93 | 10.58 |
| 27 | `COCC(=O)N1CCN(C)C(=O)C(Cc2ccccc2-c2cccs2)C1` (centres undefined) | - | 30.73 |
| 28 | `O=C1NCCN1CCNCC1(O)CCCN(CCC2CCCCC2)C1=O` (centres undefined) | -34.09 | 17.71 |
| 29 | `COCc1nc(C(=O)N2CCCC2c2cc(C)on2)cs1` (centres undefined) | -8.777 | 19.87 |
| 30 | `O=C(O)c1cn(-c2ccccn2)c(=O)c2ccccc12` | - | 9.624 |
| 31 | `CCCN(Cc1nccn1C)C(=O)c1cc(C)nc(C)n1` | - | 0.5713 |
| 32 | `CCn1c(CN(C)C)nnc1C1CCN(c2ccnc(C)c2)CC1` | 11.43 | -10.53 |
| 33 | `Cc1nc(C2CCCN2Cc2ccc(S(=O)(=O)N(C)C)o2)no1` (centres undefined) | -13.57 | -8.943 |
| 34 | `O=C(CCCc1ccccn1)N1CCSC2(CCCCC2)C1` | -4.22 | 11 |
| 35 | `CCN(CC1CN(Cc2ncc[nH]2)CCO1)c1cccnn1` (centres undefined) | 4.918 | 22.58 |
| 36 | `Cc1ccc(N2CCCC(NCc3ccc(C)s3)C2)nn1` (centres undefined) | -14.28 | -9.575 |
| 37 | `Cc1nc(CN(C)C2CCN(CCc3cnn(C)c3)C2)no1` (centres undefined) | -7.345 | 5.885 |
| 38 | `O=C(NC1CCOCC1)c1cccc(C2CCCNC2)c1` (centres undefined) | -35.35 | -13.02 |
| 39 | `O=C(NCC1CCCCO1)c1ccc(-c2ccco2)[nH]c1=O` (centres undefined) | -0.02354 | -5.137 |
| 40 | `CNS(=O)(=O)c1ccc(CNC(=O)Nc2ccccn2)s1` | -32.58 | 9.875 |
| 41 | `Cc1ccc(C(=O)O)c(N2Cc3cnc(C(C)(C)C)nc3C2)n1` | 1.936 | 13.81 |
| 42 | `CCc1noc(C(C)N2CCN(CC)CC2)n1` (centres undefined) | -0.8055 | 28.17 |
| 43 | `Cc1ccc(-c2cc(CNc3ncnc4c3CCNCC4)no2)cc1` | 31.3 | 97.6 |
| 44 | `O=C1CCC(=O)N1CCn1nnc(-c2ccc(Br)cc2)n1` | -8.839 | -19.06 |
| 45 | `Cc1cc(C(=O)N2CCn3nc(C(=O)NC4CC4)cc3C2)nc(C)n1` | 9.474 | 25.81 |
| 46 | `CC(C)NC(=O)c1cccc(NC(=O)CCCc2nc(C(C)C)no2)c1` | -18.11 | -1.359 |
| 47 | `CCn1cc(CCC(=O)NCc2csc(C3CC3)n2)c(C)n1` | 4.216 | -4.984 |
| 48 | `Cc1nnc(NC(=O)CN(C)CC2CCCN2c2cccnn2)s1` (centres undefined) | -58.2 | 22.81 |
| 49 | `CCN(C)c1ncnc2c1CCN(c1ccc(C)nn1)CC2` | -91.7 | 24.25 |
| 50 | `c1nc(N2CCCC2)ncc1CN1CCCC(CN2CCCCC2)C1` (centres undefined) | -17.69 | -7.026 |
| 51 | `O=S(=O)(CC1CCCO1)Nc1cc(Cl)ccc1-n1cccn1` (centres undefined) | 6.523 | 8.541 |
| 52 | `CCn1cnnc1CNC(=O)NC(c1ccccc1)C1CCCC1` (centres undefined) | -7.277 | 21.46 |
| 53 | `Cc1nn(CC(=O)O)c2nccc(-c3ccc(F)cc3)c12` | -54.2 | -35.24 |
| 54 | `Cc1cccc(C(=O)NCCNCC2CNc3ccnn3C2)c1` (centres undefined) | -20.67 | 17.21 |
| 55 | `O=C(c1cccs1)N1CCC2(CC1)CC(Oc1ccccc1)CO2` (centres undefined) | 11.16 | 34.87 |
| 56 | `Cc1ccc(C)c(CN(C)Cc2nnc3ccccn23)c1` | -2.91 | 16.57 |
| 57 | `[H][C@]12CC[C@]([H])(CN(Cc3ccccc3C)C1)N(CC1CCC1)C2=O` | -14.04 | 6.524 |
| 58 | `COCCN(C)C[C@@H]1CN(C(=O)c2ccc(C)cc2)C[C@@H]1CO` | -6.809 | 11.58 |
| 59 | `O=C1CCC2(CCCN(c3ncc(F)cn3)CC2)N1Cc1ccccc1` (centres undefined) | -32.77 | -56.85 & -16.52 |
| 60 | `CC(C)Nc1cc(N2CCN(Cc3ccccc3)C(CCO)C2)ncn1` (centres undefined) | -52.04 | 5.836 |
| 61 | `COc1cc(C)c(CNC(C)c2csc(C)n2)cc1OC` (centres undefined) | -58.64 | 7.892 |
| 62 | `CCS(=O)(=O)N1CCC(c2nnc(C(F)(F)F)o2)CC1` | -6.101 | 20.23 |
| 63 | `CC(Cc1ccco1)NC(=O)Nc1ccc(N2CCCC2)nc1` (centres undefined) | - | 19.69 |
| 64 | `O=C(NC1COC2(CCN(CC3CCC3)CC2)C1)c1ccccn1.O=C(O)C(F)(F)F` (centres undefined) | -69.47 | -21.36 & -6.372 |
| 65 | `Nc1cc2c(nn1)CCN(C(=O)c1ccc(-c3ccco3)[nH]c1=O)C2` | 17.75 | 9.211 |
| 66 | `NC(=O)c1ccc2c(c1)nc1n2CCN(Cc2ccccc2)C1` | 16.4 | 26.98 |
| 67 | `CC(=O)N1CCCn2nc(CNc3cc(C)ncn3)cc2C1` | -33.25 | 1.015 |
| 68 | `CC(C)C(NC(=O)c1ccccc1)C(=O)N1CCC2(CC1)OCCO2` (centres undefined) | -65.88 | -0.4345 |
| 69 | `Cc1csc(NC(=O)C2(C)CCCO2)n1` (centres undefined) | -10.43 | 12.46 |
| 70 | `Cc1ccc(C(N)=O)c(N2Cc3cnc(C(C)(C)C)nc3C2)n1` | -3.204 | 4.859 |
| 71 | `CC(=O)N1CCN(CC2CCOc3ccccc3C2)CC1` (centres undefined) | -23.89 | 13.65 |
| 72 | `CCS(=O)(=O)N1CCCC2(CCCN2Cc2cccc(Cl)c2)C1.O=C(O)C(F)(F)F` (centres undefined) | -6.036 | 10.78 |
| 73 | `Cc1ccc2c(c1)c(CNC(=O)C1CCN(C(C)C)CC1)nn2C` | -8.341 | 24.76 |
| 74 | `CC(Cn1cccn1)NC(=O)Cc1cccs1` (centres undefined) | -23.44 | 15.55 |
| 75 | `Cc1nn(C(C)C)c2cnn(CC(=O)N3CCN(C)CC3)c12` | 2.518 | 30.62 |
| 76 | `CC(C)c1cc(C(=O)NCCN2CCOCC2)nc(N2CCCC2)n1` | -33.38 | -62.09 |
| 77 | `COc1ccc(C(=O)NCc2ccc(C(=O)O)o2)cc1` | -28.39 | -0.7396 |
| 78 | `CC(C)c1nc(CN(C)C2CCN(CCS(C)(=O)=O)C2)no1` (centres undefined) | 0.5805 | 6.789 |

6 of the entries, repeated:

SMILES	T. brucei	Leishmania in macrophages
CCn1c(CN(C)C)nnc1C1CCN(c2ccnc(C)c2)CC1	11.43	-10.53
CN(CCOc1cccc(CN)c1)C1CCOCC1	20.13	11.18
CC(=O)N1CCN(CC2CCOc3ccccc3C2)CC1 (centres undefined)	-23.89	13.65
CC(Cn1cccn1)NC(=O)Cc1cccs1 (centres undefined)	-23.44	15.55
O=C1CCCN1c1cccc(N2CCC(NCCc3cscn3)CC2)c1	6.374	16.35
Cc1nn(CC(=O)O)c2nccc(-c3ccc(F)cc3)c12	-54.2	-35.24